# Results reported in publication PMC7955166.
# Positions count from the first letter of the chain named. No constants are given. Whether binding was seen depends on the method and setting. For some of these results: In cells and extracts the contact can be indirect. Some entries that bind do so weakly or less than the wild type. Where a sequence is shown, tags or fusion partners need not be part of it.
# T1: MBP-CYRI-A (mouse) (UniProt Q8BHZ0)
# T1 sequence: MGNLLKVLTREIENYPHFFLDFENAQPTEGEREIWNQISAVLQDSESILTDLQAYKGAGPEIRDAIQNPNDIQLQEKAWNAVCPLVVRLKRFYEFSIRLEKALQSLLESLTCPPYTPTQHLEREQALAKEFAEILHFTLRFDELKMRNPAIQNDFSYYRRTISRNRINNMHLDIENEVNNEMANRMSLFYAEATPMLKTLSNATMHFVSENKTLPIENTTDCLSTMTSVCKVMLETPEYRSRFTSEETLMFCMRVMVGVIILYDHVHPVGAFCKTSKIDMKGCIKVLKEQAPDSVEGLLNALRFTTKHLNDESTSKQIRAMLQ
# T2: MBP-CYRI-A R159D (mouse) (UniProt Q8BHZ0)
# T2 sequence: T1 sequence with R159D
# T3: MBP-CYRI-A R159D R160D (double mutant) (mouse) (UniProt Q8BHZ0)
# T3 sequence: T1 sequence with R159D, R160D
# T4: MBP-CYRI-A R160D (mouse) (UniProt Q8BHZ0)
# T4 sequence: T1 sequence with R160D
# T5: P17-HA-CYRI-B (not stated (human or mouse cDNA cloned)) (UniProt Q921M7)
# T5 sequence: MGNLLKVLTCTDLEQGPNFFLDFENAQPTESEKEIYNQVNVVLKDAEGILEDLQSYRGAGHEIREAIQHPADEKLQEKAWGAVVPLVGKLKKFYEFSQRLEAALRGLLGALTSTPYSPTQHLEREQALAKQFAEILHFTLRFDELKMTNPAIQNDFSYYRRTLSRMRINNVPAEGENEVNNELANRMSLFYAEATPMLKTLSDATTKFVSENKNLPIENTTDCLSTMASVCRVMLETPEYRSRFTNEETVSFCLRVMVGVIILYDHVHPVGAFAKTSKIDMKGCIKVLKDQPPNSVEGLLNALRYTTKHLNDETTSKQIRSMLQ
# B1: HA-CYRI-B (protein, UniProt Q921M7 1-324)
# chain: T5 sequence
# B2: CYRI-A-FLAG (protein, UniProt Q8BHZ0 1-323)
# chain: T1 sequence
# B3: CYRI-A-FLAG RRDD mutant (protein, UniProt Q8BHZ0 1-323)
# chain: T1 sequence with R159D, R160D
# How the values were obtained:
# [1] = molecular target: T1, MBP-CYRI-A (mouse); assay: pull-down; MBP pulldown competition: as the MBP pulldown with HA-CYRI-B, with 0, 1, 5, 10 and 30μg active Rac1 Q61L added to 500μl; blots with anti-MBP, anti-HA, anti-Rac1/2/3; both purified
# [2] = molecular target: T1, MBP-CYRI-A (mouse); assay: pull-down; MBP-tagged CYRI on MBP beads; 30μg purified HA-tagged protein in Binding Buffer (50mM Tris 7.5, 50mM NaCl, 5mM MgCl2, 0.1% Tx100), 500μl, 90min at 4°C, 5 washes; blot with HA antibody; both purified
# [3] = molecular target: T2, MBP-CYRI-A R159D (mouse); assay: as above
# [4] = molecular target: T3, MBP-CYRI-A R159D R160D (double mutant) (mouse); assay: as above
# [5] = molecular target: T4, MBP-CYRI-A R160D (mouse); assay: as above
# [6] = molecular target: T5, P17-HA-CYRI-B (not stated (human or mouse cDNA cloned)); assay: proximity ligation; COS-7 cells co-transfected with CYRI-A-FLAG and P17-HA-CYRI-B for 24h; Duolink with anti-FLAG and anti-HA
Binder,binding [1],binding [2],binding [3],binding [4],binding [5],binding [6]
B1,binds,binds weakly,binds weakly,binds weakly,binds weakly,
B2,,,,,,binds
B3,,,,,,binds
